The values that follow come from patent publication US12729225B2, “Non-canonical SWI/SNF complex and uses thereof” (Dana-Farber Cancer Institute, Inc., priority 2018, dated 2026).

B1: SERBP1 (protein, UniProt Q8NC51 2-408, looked up)
SERPINE1 mRNA-binding protein …: PGHLQEGFGCVVTNRFDQLFDDESDPFEVLKAAENKKKEAGGGGVGGPGAKSAAQAAAQTNSNAAGKQLRKESQKDRKNPLPPSVGVVDKKEETQPPVALKKEGIRRVGRRPDQQLQGEGKIIDRRPERRPPRERRFEKPLEEKGEGGEFSVDRPIIDRPIRGRGGLGRGRGGRGRGMGRGDGFDSRGKREFDRHSGSDRSSFSHYSGLKHEDKRGGSGSHNWGTVKDELTESPKYIQKQISYNYSDLDQSNVTEETPEGEEHHPVADTENKENEVEEVKEEGPKEMTLDEWKAIQNKDRAKVEFNIRKPNEGADGQWKKGFVLHKSKSEEAHAEDSVMDHHFRKPANDITSQLEINFGDLGRPGRGGRGGRGGRGRGGRPNRGSRTDKSSASAPDVDDPEAFPALA
B2: CCT2 (protein, UniProt P78371 2-535, looked up)
T-complex protein 1 subunit …: ASLSLAPVNIFKAGADEERAETARLTSFIGAIAIGDLVKSTLGPKGMDKILLSSGRDASLMVTNDGATILKNIGVDNPAAKVLVDMSRVQDDEVGDGTTSVTVLAAELLREAESLIAKKIHPQTIIAGWREATKAAREALLSSAVDHGSDEVKFRQDLMNIAGTTLSSKLLTHHKDHFTKLAVEAVLRLKGSGNLEAIHIIKKLGGSLADSYLDEGFLLDKKIGVNQPKRIENAKILIANTGMDTDKIKIFGSRVRVDSTAKVAEIEHAEKEKMKEKVERILKHGINCFINRQLIYNYPEQLFGAAGVMAIEHADFAGVERLALVTGGEIASTFDHPELVKLGSCKLIEEVMIGEDKLIHFSGVALGEACTIVLRGATQQILDEAERSLHDALCVLAQTVKDSRTVYGGGCSEMLMAHAVTQLANRTPGKEAVAMESYAKALRMLPTIIADNAGYDSADLVAQLRAAHSEGNTTAGLDMREGTIGDMAILGITESFQVKRQVLLSAAEAAEVILRVDNIIKAAPRKRVPDHHPC
B3: IMP4 (protein, UniProt Q96G21 1-291, looked up)
U3 small nucleolar …: MLRREARLRREYLYRKAREEAQRSAQERKERLRRALEENRLIPTELRREALALQGSLEFDDAGGEGVTSHVDDEYRWAGVEDPKVMITTSRDPSSRLKMFAKELKLVFPGAQRMNRGRHEVGALVRACKANGVTDLLVVHEHRGTPVGLIVSHLPFGPTAYFTLCNVVMRHDIPDLGTMSEAKPHLITHGFSSRLGKRVSDILRYLFPVPKDDSHRVITFANQDDYISFRHHVYKKTDHRNVELTEVGPRFELKLYMIRLGTLEQEATADVEWRWHPYTNTARKRVFLSTE
B4: UQCRFS1 (protein, UniProt P47985 79-274, looked up)
Cytochrome b-c1 complex …: SHTDIKVPDFSEYRRLEVLDSTKSSRESSEARKGFSYLVTGVTTVGVAYAAKNAVTQFVSSMSASADVLALAKIEIKLSDIPEGKNMAFKWRGKPLFVRHRTQKEIEQEAAVELSQLRDPQHDLDRVKKPEWVILIGVCTHLGCVPIANAGDFGGYYCPCHGSHYDASGRIRLGPAPLNLEVPTYEFTSDDMVIVG
B5: NUP62 (protein)
chain: SGFNFGGTGAPTGGFTFGTAKTATTTPATGFSFSTSGTGGFNFGAPFQPATSTPSTGLFSLATQTPATQTTGFTFGTATLASGGTGFSLGIGASKLNLSNTAATPAMANPSGFGLGSSNLTNAISSTVTSSQGTAPTGFVFGPSTTSVAPATTSGGFSFTGGSTAQPSGFNIGSAGNSAQPTAPATLPFTPATPAATTAGATQPAAPTPTATITSTGPSLFASIATAPTSSATTGLSLCTPVTTAGAPTAGTQGFSLKAPGAASGTSTTTSTAATATATTTSSSSTTGFALNLKPLAPAGIPSNTAAAVTAPPGPGAAAGAAASSAMTYAQLESLINKWSLELEDQERHFLQQATQVNAWDRTLIENGEKITSLHREVEKVKLDQKRLDQELDFILSQQKELEDLLSPLEELVKEQSGTIYLQHADEEREKTYKLAENIDAQLKRMAQDLKDIIEHLNTSGAPADTSDPLQQICKILNAHMDSLQWIDQNSALLQRKVEEVTKVCEGRRKEQERSFRITFD
B6: PC (protein, UniProt P11498 21-1178, looked up)
Pyruvate carboxylase, …: TAPAASPNVRRLEYKPIKKVMVANRGEIAIRVFRACTELGIRTVAIYSEQDTGQMHRQKADEAYLIGRGLAPVQAYLHIPDIIKVAKENNVDAVHPGYGFLSERADFAQACQDAGVRFIGPSPEVVRKMGDKVEARAIAIAAGVPVVPGTDAPITSLHEAHEFSNTYGFPIIFKAAYGGGGRGMRVVHSYEELEENYTRAYSEALAAFGNGALFVEKFIEKPRHIEVQILGDQYGNILHLYERDCSIQRRHQKVVEIAPAAHLDPQLRTRLTSDSVKLAKQVGYENAGTVEFLVDRHGKHYFIEVNSRLQVEHTVTEEITDVDLVHAQIHVAEGRSLPDLGLRQENIRINGCAIQCRVTTEDPARSFQPDTGRIEVFRSGEGMGIRLDNASAFQGAVISPHYDSLLVKVIAHGKDHPTAATKMSRALAEFRVRGVKTNIAFLQNVLNNQQFLAGTVDTQFIDENPELFQLRPAQNRAQKLLHYLGHVMVNGPTTPIPVKASPSPTDPVVPAVPIGPPPAGFRDILLREGPEGFARAVRNHPGLLLMDTTFRDAHQSLLATRVRTHDLKKIAPYVAHNFSKLFSMENWGGATFDVAMRFLYECPWRRLQELRELIPNIPFQMLLRGANAVGYTNYPDNVVFKFCEVAKENGMDVFRVFDSLNYLPNMLLGMEAAGSAGGVVEAAISYTGDVADPSRTKYSLQYYMGLAEELVRAGTHILCIKDMAGLLKPTACTMLVSSLRDRFPDLPLHIHTHDTSGAGVAAMLACAQAGADVVDVAADSMSGMTSQPSMGALVACTRGTPLDTEVPMERVFDYSEYWEGARGLYAAFDCTATMKSGNSDVYENEIPGGQYTNLHFQAHSMGLGSKFKEVKKAYVEANQMLGDLIKVTPSSKIVGDLAQFMVQNGLSRAEAEAQAEELSFPRSVVEFLQGYIGVPHGGFPEPFRSKVLKDLPRVEGRPGASLPPLDLQALEKELVDRHGEEVTPEDVLSAAMYPDVFAHFKDFTATFGPLDSLNTRLFLQGPKIAEEFEVELERGKTLHIKALAVSDLNRAGQRQVFFELNGQLRSILVKDTQAMKEMHFHPKALKDVKGQIGAPMPGKVIDIKVVAGAKVAKGQPLCVLSAMKMETVVTSPMEGTVRKVHVTKDMTLEGDDLILEIE
B7: AP2B1 (protein)
chain: TDSKYFTTNKKGEIFELKAELNNEKKEKRKEAVKKVIAAMTVGKDVSSLFPDVVNCMQTDNLELKKLVYLYLMNYAKSQPDMAIMAVNSFVKDCEDPNPLIRALAVRTMGCIRVDKITEYLCEPLRKCLKDEDPYVRKTAAVCVAKLHDINAQMVEDQGFLDSLRDLIADSNPMVVANAVAALSEISESHPNSNLLDLNPQNINKLLTALNECTEWGQIFILDCLSNYNPKDDREAQSICERVTPRLSHANSAVVLSAVKVLMKFLELLPKDSDYYNMLLKKLAPPLVTLLSGEPEVQYVALRNINLIVQKRPEILKQEIKVFFVKYNDPIYVKLEKLDIMIRLASQANIAQVLAELKEYATEVDVDFVRKAVRAIGRCAIKVEQSAERCVSTLLDLIQTKVNYVVQEAIVVIRDIFRKYPNKYESIIATLCENLDSLDEPDARAAMIWIVGEYAERIDNADELLESFLEGFHDESTQVQLTLLTAIVKLFLKKPSETQELVQQVLSLATQDSDNPDLRDRGYIYWRLLSTDPVTAKEVVLSEKPLISEETDLIEPTLLDELICHIGSLASVYHKPPNAFVEGSHGIHRKHLPIHHGSTDAGDSPVGTTTATNLEQPQVIPSQGDLLGDLLNLDLGPPVNVPQVSSMQMGAVDLLGGGLDSLVGQSFIPSSVPATFAPSPTPAVVSSGLNDLFELSTGIGMAPGGYVAPKAVWLPAVKAKGLEISGTFTHRQGHIYMEMNFTNKALQHMTDFAIQFNKNSFGVIPSTPLAIHTPLMPNQSIDVSLPLNTLGPVMKMEPLNNLQVAVKNNIDVFYFSCLIPLNVLFVEDGKMERQVFLATWKDIPNENELQFQIKECHLNADTVSSKLQNNNVYTIAKRNVEGQDMLYQSLKLTNGIWILAELRIQPGNPNYTLSLKCRAPEVSQYIYQVYDSILKN

The first data set concerns mSWI/SNF complexes. Description: mSWI/SNF complex purification with HA-tagged baits and mass spectrometry (peptide counts). Details: species or system human. The note with it: 293_HA-BRD7 bait purification, mass spectrometry; total peptide count per identified protein.
As to B1, the Total is on record as 1.
Molecule B2 displayed a Total of 1.
In turn, B3 gave a Total of 1.
B4 returned a Total of 1.
Still for that read-out and setting: as for B5, the figure is 1.
B6: the Total stood at 1.
As for B7, the Total is on record as 1.

Still in this data set, the particulars now being: 293_HA-BRD7 bait purification, mass spectrometry; unique peptide count per identified protein.
In turn, B1 registered a Unique of 1.
Molecule B2 returned a Unique of 1.
Still for that read-out and setting: with B3 the figure was 1.
Take B4: the Unique is on record as 1.
The same measure, in the same setting: as for B5, the figure is 1.
For B6, the Unique was 1.
In turn, B7 displayed a Unique of 1.
